Reference: PubChem BioAssay AID1259254 (NCATS, 2017)

Purpose: 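Gene knock-downs that lead to re-replication, shown by excess G2 DNA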 (primary screen)
System: human HCT116 colorectal cancer cells
Knock-down reagent: single siRNA against human genes
Duration: 3 days
Measured: 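Nuclei stained with Hoechst and imaged; cell-cycle phase assigned by DNA content; G2 share scaled per plate, non-targeting siRNA 0%, GMNN siRNA 100%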
Reading the numbers: G2 robust z-score: higher = more G2 cells, more excess DNA replication
Active means: 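Active siRNAs have a G2 robust z of 5 or more median absolute deviations over the median, which in these data means about 38% or higher of GMNN control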
Here is a random part of about 59,000 reagents. About 1,550 of all reagents (2.6%) were called active. 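G2 share is only a proxy for re-replication; each gene was hit by three separate siRNAs, and active genes were retested.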 Entries without a mark were called inactive. The numbers tell different reagents against one gene apart. Not all columns of the deposit are shown. Reagent sequences are not shown. Not given: the amount of reagent.

G2 robust z-score, by gene and reagent
PLEKHG4 (pleckstrin homology and RhoGEF domain containing G4): #1 -0.136; #2 1.38; #3 0.836
UQCC3 (ubiquinol-cytochrome c reductase complex assembly factor 3): #1 0.593; #2 -0.596; #3 -0.446
SH3RF1 (SH3 domain containing ring finger 1): #1 -0.621; #2 -0.491; #3 -0.865
DYRK2 (dual specificity tyrosine phosphorylation regulated kinase 2): #1 -0.588; #2 -0.783; #3 -0.591
OR4Q3 (olfactory receptor family 4 subfamily Q member 3): #1 -0.569; #2 -0.167; #3 -0.719
CALML4 (calmodulin like 4): #1 0.069; #2 2.28; #3 -0.369
AGO2 (argonaute RISC catalytic component 2): #1 -1.17; #2 -0.585; #3 -0.907

Part of the list above, reformatted:
OR4Q3 (olfactory receptor family 4 subfamily Q member 3) #1: G2 robust z-score = -0.569
OR4Q3 (olfactory receptor family 4 subfamily Q member 3) #2: G2 robust z-score = -0.167
OR4Q3 (olfactory receptor family 4 subfamily Q member 3) #3: G2 robust z-score = -0.719
CALML4 (calmodulin like 4) #1: G2 robust z-score = 0.069
CALML4 (calmodulin like 4) #2: G2 robust z-score = 2.28
CALML4 (calmodulin like 4) #3: G2 robust z-score = -0.369
AGO2 (argonaute RISC catalytic component 2) #1: G2 robust z-score = -1.17
AGO2 (argonaute RISC catalytic component 2) #2: G2 robust z-score = -0.585

More records:
G2 robust z-score, by gene and reagent
HMGXB4 (HMG-box containing 4): #1 1.01; #2 1.74; #3 2.17
SEMA5A (semaphorin 5A): #1 1.12; #2 9.16 (active); #3 0.225
NPC1 (NPC intracellular cholesterol transporter 1): #1 -0.474; #2 -0.363; #3 -0.63
PTGES3P1 (prostaglandin E synthase 3 pseudogene 1): #1 0.719; #2 2.08; #3 -0.137
DNAI1 (dynein axonemal intermediate chain 1): #1 1.56; #2 0.623; #3 -0.816
DPPA3 (developmental pluripotency associated 3): #1 1.1; #2 0.149; #3 0.087
LINC02591 (long independently transcribed non-coding RNA 2591): #1 -0.634; #2 -0.497; #3 -0.104
LSP1 (lymphocyte specific protein 1): #1 1.05; #2 -0.681; #3 -0.219
LINC00614 (long intergenic non-protein coding RNA 614): #1 0.451; #2 0.156; #3 -0.187
